# From the supplement of paper PMC3334620
# Over roughly 33,000 sequences, “E-score (-0.5 to 0.5)” has its median near -8e-05; the highest 2% begin near 0.23. Some of the results follow.
# Biological target: T1, Nrg2 (UniProt P38082)
# T1 sequence: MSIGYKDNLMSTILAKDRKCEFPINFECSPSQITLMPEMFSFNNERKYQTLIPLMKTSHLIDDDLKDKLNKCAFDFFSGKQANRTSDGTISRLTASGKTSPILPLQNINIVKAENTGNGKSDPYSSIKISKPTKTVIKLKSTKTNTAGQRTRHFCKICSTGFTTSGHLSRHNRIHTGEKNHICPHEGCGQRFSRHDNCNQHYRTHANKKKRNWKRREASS
# Assay: PBM E-score (8-mer binding enrichment) (E-score (-0.5 to 0.5)); higher = stronger / more preferred TF binding
# Conditions: protein concentration: 100 nM; construct: GST-full length
# Summary of the method: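 Bound GST-tagged yeast transcription factors, applied at about 100-200 nM to double-stranded universal all-10-mer Agilent arrays, were detected with fluorescent anti-GST. Scans were normalised with masliner. A modified Wilcoxon-Mann-Whitney statistic, the E-score, was assigned to each ungapped eight-base word pooled with its reverse complement by the Universal PBM Analysis Suite.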
row,Sequence,PBM E-score
1,AAAGATGA,-0.0996
2,CAGTATAG,0.153
3,GGAAGTGA,0.103
4,AGATTGAG,0.0802
5,AAGATGAC,-0.0214
6,CAATCACC,0.0523
7,CAAAACGC,0.154
8,CGCGCGCC,0.211
9,ACAGAGGC,-0.172
10,ATAAGTAC,0.113
11,CCAAGGCG,-0.0286
12,ATTAAGGG,0.178
13,CGTTTTTC,-0.117
14,CCGCAGAC,-0.105
15,GACACCGC,0.0182
16,AAGAAGGA,-0.13
17,TGAGTGCA,0.0235
18,GAGTCAAC,-0.0564
19,AAGGATAT,0.0571
20,CCCGCAAG,-0.15
21,ACACCGCA,0.133
22,AATTTTTA,0.0865
23,AACACCCG,0.225
24,AATTAGGA,0.0556
25,GAAAATCA,0.0143

row,Sequence,PBM E-score
1,CAGGACAA,0.226
2,CCGGCCGC,-0.152
3,CCGTACGA,-0.0376
4,AGTCATGC,-0.115
5,CCCACGTA,0.0253
6,CTTCACCA,-0.113
7,AGGAAATA,0.22
8,ACACTCAG,0.133
9,CACTTCCC,0.00444
10,ATTTTGGA,0.0286
11,AATTGTAT,0.119
12,TGTCAAAA,0.0142
13,ACAGTGTC,-0.133
14,CTCTAGGA,-0.239
15,CTGAAATC,0.0648
16,AAAAAAGG,0.127
17,AGGAATCA,-0.00827
18,AGCCCTGA,0.0189
19,GGCCCGTA,-0.148
20,ACTGAATC,-0.0363
21,GAGTCGTA,0.0144
22,CCTTTGCG,0.219
23,AATTCTAT,-0.0322
24,GTTGTGTA,-0.0294
25,CTTGTATA,-0.011

row,Sequence,PBM E-score
1,CCACCCCC,-0.406
2,CAAGAAAG,0.0551
3,TCTAACAA,0.0208
4,TCCCGGCA,-0.239
5,CCAATCAC,0.0121
6,AGGAACCA,-0.0689
7,GTCTGTGA,0.191
8,AGTACTGC,-0.0012
9,ATGTGCTG,0.125
10,ACACGGCT,0.102
11,AATTGCTG,0.257
12,ATACCAAC,0.155
13,CATACGCG,0.12
14,GCCATGAA,0.0988
15,GGAGACGA,0.139
16,CCCTTGCA,0.092
17,GTCAGACA,0.0198
18,ATGCGGCC,-0.0258
19,GCATCGAC,0.0311
20,TAACCCCA,-0.0503
21,CGGCCACC,-0.0656
22,CCAATGAC,-0.116
23,CCAGGCGA,-0.225
24,ATCAGCTG,0.184
25,GATCGTTA,-0.0328

row,Sequence,PBM E-score
1,GATGACGA,0.00169
2,AGGACACA,0.196
3,CACCAGAA,-0.13
4,TCCTAAAA,-0.251
5,CTTCCGAA,-0.017
6,CATTCCAA,-0.142
7,CGCCAGAA,0.00339
8,AAGCTCCA,-0.151
9,ACCGGCCC,-0.281
10,CTAGAAGA,-0.067
11,TTAGGAAA,-0.0859
12,GCGGTCGA,0.148
13,CGGGTATC,0.135
14,TGGGGCAA,0.0289
15,AGGAATAC,-0.116
16,CATAAAGC,-0.0684
17,GGGTTATA,-0.113
18,ATACACAG,0.134
19,ATATTTAG,0.0718
20,GATCCGGA,-0.0216
21,ATACGGCG,-0.0902
22,AATTTCGC,0.244
23,ATAGCATC,0.0125
24,AGGACGTA,-0.182
25,GGTCGGAA,0.114

row,Sequence,PBM E-score
1,CAGTCAAC,-0.142
2,AAAACAGG,-0.0624
3,ATGCACAG,0.083
4,AATGTCAA,0.0225
5,AGACAACC,0.0279
6,AGCCTGAG,-0.23
7,CAGTTTTC,0.17
8,CATTAAGA,-0.214
9,TATGCAGA,-0.0251
10,GGGCTCTA,-0.0187
11,AGCAGCCC,-0.0703
12,ACATAAAG,-0.0912
13,CCCATCGA,0.0786
14,AAGTAGGA,-0.0631
15,CGATACCG,0.0432
16,ACAGGTTC,-0.0776
17,ACTTGCTA,-0.0369
18,CGATATGA,-2e-05
19,GTAAGTGA,0.114
20,CTCCTCCC,-0.189
21,AATTGCTA,0.0948
22,CCTTACGC,0.208
23,ACCCCCGT,-0.404
24,CATATTAC,0.162
25,AATTACTA,0.134

row,Sequence,PBM E-score
1,GCTGAAAC,-0.139
2,CGCATAAG,0.0106
3,AAGATACG,-0.0456
4,CATACTCC,0.0539
5,AGTTGCTG,-0.11
6,AGACTCGC,-0.179
7,ACGGGGCA,-0.125
8,AATGCTGG,0.121
9,AAACCAAG,0.0418
10,ATTCTGGG,-0.00905
11,CCCGCGGA,0.204
12,GACAGCTA,-0.0623
13,ATGAGTCG,0.0494
14,CCTGCAAC,0.0281
15,ATACAGGC,-0.0144
16,ATTAAATA,0.167
17,AGATGTAC,0.0548
18,ATTATCAG,0.00295
19,CGATGAGA,0.0479
20,AGGGTAAC,0.00717
21,CCTATGTA,0.0808
22,GTATAGAC,0.0114
23,AGCAGGTA,-0.071
24,CGGCGCTA,-0.142
25,ACCAAGGC,-0.137

row,Sequence,PBM E-score
1,CAAACCGG,-0.0418
2,CGCAAACG,0.0139
3,GCAGATGA,-0.0237
4,AGGATATC,0.119
5,ATAGTCAC,0.115
6,AGTGTCCG,0.0105
7,ATCCGGGA,-0.0864
8,GCTCTGAA,-0.0599
9,ACGGTAAC,0.028
10,AAGGTCCC,0.135
11,CTTGATCA,0.0994
12,CAGACCGA,0.17
13,GCCACAAA,0.0838
14,ACGAATCT,0.0678
15,CGATTCAA,-0.0847
16,CATGTGGA,-0.043
17,ATCACACC,0.0235
18,GGGCTCAC,-0.224
19,AGACGAAC,0.205
20,ACCAGGTC,-0.0863
21,CTCTACAC,0.00612
22,CACCGCAC,0.0959

# Six records picked at random from those above, as already listed:
row,Sequence,PBM E-score
11,CTTGATCA,0.0994
18,GGGCTCAC,-0.224
14,ACGAATCT,0.0678
1,CAAACCGG,-0.0418
2,CGCAAACG,0.0139
13,GCCACAAA,0.0838

# As a short view, part of the list above.
row,Sequence,PBM E-score
25,GAAAATCA,0.0143
1,CAGGACAA,0.226
2,CCGGCCGC,-0.152
3,CCGTACGA,-0.0376
4,AGTCATGC,-0.115
5,CCCACGTA,0.0253
